Publication doi:10.1101/2019.12.18.867333
These are yes or no findings as the source states them, for the method shown. Binding calls can cover weak binding; strength is not graded here. Sequences can lack the tags named with a protein.

Target: MBP-AP3 (appendage domain of rat AP-3 delta) (rat)
Assay: pull-down

B1: HIS-6 VPS41^WT (protein, UniProt P49754-1 1-854)
chain: MAEAEEQETGSLEESTDESEEEESEEEPKLKYERLSNGVTEILQKDAASCMTVHDKFLALGTHYGKVYLLDVQGNITQKFDVSPVKINQISLDESGEHMGVCSEDGKVQVFGLYSGEEFHETFDCPIKIIAVHPHFVRSSCKQFVTGGKKLLLFERSWMNRWKSAVLHEGEGNIRSVKWRGHLIAWANNMGVKIFDIISKQRITNVPRDDISLRPDMYPCSLCWKDNVTLIIGWGTSVKVCSVKERHASEMRDLPSRYVEIVSQFETEFYISGLAPLCDQLVVLSYVKEISEKTEREYCARPRLDIIQPLSETCEEISSDALTVRGFQENECRDYHLEYSEGESLFYIVSPRDVVVAKERDQDDHIDWLLEKKKYEEALMAAEISQKNIKRHKILDIGLAYINHLVERGDYDIAARKCQKILGKNAALWEYEVYKFKEIGQLKAISPYLPRGDPVLKPLIYEMILHEFLESDYEGFATLIREWPGDLYNNSVIVQAVRDHLKKDSQNKTLLKTLAELYTYDKNYGNALEIYLTLRHKDVFQLIHKHNLFSSIKDKIVLLMDFDSEKAVDMLLDNEDKISIKKVVEELEDRPELQHVYLHKLFKRDHHKGQRYHEKQISLYAEYDRPNLLPFLRDSTHCPLEKALEICQQRNFVEETVYLLSRMGNSRSALKMIMEELHDVDKAIEFAKEQDDGELWEDLILYSIDKPPFITGLLNNIGTHVDPILLIHRIKEGMEIPNLRDSLVKILQDYNLQILLREGCKKILVADSLSLLKKMHRTQMKGVLVDEENICESCLSPILPSDAAKPFSVVVFHCRHMFHKECLPMPSMNSAAQFCNICSAKNRGPGSAILEMKK
With B1 the binding was “binds”.

B2: HIS-6 VPS41^S285P (protein, UniProt P49754-1 1-854)
chain: MAEAEEQETGSLEESTDESEEEESEEEPKLKYERLSNGVTEILQKDAASCMTVHDKFLALGTHYGKVYLLDVQGNITQKFDVSPVKINQISLDESGEHMGVCSEDGKVQVFGLYSGEEFHETFDCPIKIIAVHPHFVRSSCKQFVTGGKKLLLFERSWMNRWKSAVLHEGEGNIRSVKWRGHLIAWANNMGVKIFDIISKQRITNVPRDDISLRPDMYPCSLCWKDNVTLIIGWGTSVKVCSVKERHASEMRDLPSRYVEIVSQFETEFYISGLAPLCDQLVVLPYVKEISEKTEREYCARPRLDIIQPLSETCEEISSDALTVRGFQENECRDYHLEYSEGESLFYIVSPRDVVVAKERDQDDHIDWLLEKKKYEEALMAAEISQKNIKRHKILDIGLAYINHLVERGDYDIAARKCQKILGKNAALWEYEVYKFKEIGQLKAISPYLPRGDPVLKPLIYEMILHEFLESDYEGFATLIREWPGDLYNNSVIVQAVRDHLKKDSQNKTLLKTLAELYTYDKNYGNALEIYLTLRHKDVFQLIHKHNLFSSIKDKIVLLMDFDSEKAVDMLLDNEDKISIKKVVEELEDRPELQHVYLHKLFKRDHHKGQRYHEKQISLYAEYDRPNLLPFLRDSTHCPLEKALEICQQRNFVEETVYLLSRMGNSRSALKMIMEELHDVDKAIEFAKEQDDGELWEDLILYSIDKPPFITGLLNNIGTHVDPILLIHRIKEGMEIPNLRDSLVKILQDYNLQILLREGCKKILVADSLSLLKKMHRTQMKGVLVDEENICESCLSPILPSDAAKPFSVVVFHCRHMFHKECLPMPSMNSAAQFCNICSAKNRGPGSAILEMKK
B2 was tested, and the binding was “binds”.
